# Test results as given in the supplement of paper PMC11732987, “Enantioselective OTUD7B fragment discovery through chemoproteomics screening and high-throughput optimisation” (Communications Chemistry, 2025).
# Amino acid sequences for entries named in this document (tags omitted). A change or cut given only in a name is not applied to a line headed by its entry. Residues count along the entry.
# UniProt Q7Z4H3, 141-163: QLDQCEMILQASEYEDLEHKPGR
# UniProt Q1KMD3, 594-624: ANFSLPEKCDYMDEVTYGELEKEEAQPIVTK
# UniProt P55795: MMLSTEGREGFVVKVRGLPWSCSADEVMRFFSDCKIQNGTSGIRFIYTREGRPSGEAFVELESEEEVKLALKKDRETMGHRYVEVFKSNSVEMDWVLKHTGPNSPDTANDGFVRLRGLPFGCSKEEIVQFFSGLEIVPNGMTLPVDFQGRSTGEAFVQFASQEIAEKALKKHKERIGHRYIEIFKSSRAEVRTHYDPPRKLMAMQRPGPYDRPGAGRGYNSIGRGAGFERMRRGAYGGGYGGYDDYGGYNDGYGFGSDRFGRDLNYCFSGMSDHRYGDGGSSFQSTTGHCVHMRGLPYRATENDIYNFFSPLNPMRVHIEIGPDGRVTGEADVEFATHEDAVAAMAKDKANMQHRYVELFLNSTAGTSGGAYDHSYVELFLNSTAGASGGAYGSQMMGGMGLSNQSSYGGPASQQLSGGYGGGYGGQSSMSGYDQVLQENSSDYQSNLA
# UniProt Q9ULT8: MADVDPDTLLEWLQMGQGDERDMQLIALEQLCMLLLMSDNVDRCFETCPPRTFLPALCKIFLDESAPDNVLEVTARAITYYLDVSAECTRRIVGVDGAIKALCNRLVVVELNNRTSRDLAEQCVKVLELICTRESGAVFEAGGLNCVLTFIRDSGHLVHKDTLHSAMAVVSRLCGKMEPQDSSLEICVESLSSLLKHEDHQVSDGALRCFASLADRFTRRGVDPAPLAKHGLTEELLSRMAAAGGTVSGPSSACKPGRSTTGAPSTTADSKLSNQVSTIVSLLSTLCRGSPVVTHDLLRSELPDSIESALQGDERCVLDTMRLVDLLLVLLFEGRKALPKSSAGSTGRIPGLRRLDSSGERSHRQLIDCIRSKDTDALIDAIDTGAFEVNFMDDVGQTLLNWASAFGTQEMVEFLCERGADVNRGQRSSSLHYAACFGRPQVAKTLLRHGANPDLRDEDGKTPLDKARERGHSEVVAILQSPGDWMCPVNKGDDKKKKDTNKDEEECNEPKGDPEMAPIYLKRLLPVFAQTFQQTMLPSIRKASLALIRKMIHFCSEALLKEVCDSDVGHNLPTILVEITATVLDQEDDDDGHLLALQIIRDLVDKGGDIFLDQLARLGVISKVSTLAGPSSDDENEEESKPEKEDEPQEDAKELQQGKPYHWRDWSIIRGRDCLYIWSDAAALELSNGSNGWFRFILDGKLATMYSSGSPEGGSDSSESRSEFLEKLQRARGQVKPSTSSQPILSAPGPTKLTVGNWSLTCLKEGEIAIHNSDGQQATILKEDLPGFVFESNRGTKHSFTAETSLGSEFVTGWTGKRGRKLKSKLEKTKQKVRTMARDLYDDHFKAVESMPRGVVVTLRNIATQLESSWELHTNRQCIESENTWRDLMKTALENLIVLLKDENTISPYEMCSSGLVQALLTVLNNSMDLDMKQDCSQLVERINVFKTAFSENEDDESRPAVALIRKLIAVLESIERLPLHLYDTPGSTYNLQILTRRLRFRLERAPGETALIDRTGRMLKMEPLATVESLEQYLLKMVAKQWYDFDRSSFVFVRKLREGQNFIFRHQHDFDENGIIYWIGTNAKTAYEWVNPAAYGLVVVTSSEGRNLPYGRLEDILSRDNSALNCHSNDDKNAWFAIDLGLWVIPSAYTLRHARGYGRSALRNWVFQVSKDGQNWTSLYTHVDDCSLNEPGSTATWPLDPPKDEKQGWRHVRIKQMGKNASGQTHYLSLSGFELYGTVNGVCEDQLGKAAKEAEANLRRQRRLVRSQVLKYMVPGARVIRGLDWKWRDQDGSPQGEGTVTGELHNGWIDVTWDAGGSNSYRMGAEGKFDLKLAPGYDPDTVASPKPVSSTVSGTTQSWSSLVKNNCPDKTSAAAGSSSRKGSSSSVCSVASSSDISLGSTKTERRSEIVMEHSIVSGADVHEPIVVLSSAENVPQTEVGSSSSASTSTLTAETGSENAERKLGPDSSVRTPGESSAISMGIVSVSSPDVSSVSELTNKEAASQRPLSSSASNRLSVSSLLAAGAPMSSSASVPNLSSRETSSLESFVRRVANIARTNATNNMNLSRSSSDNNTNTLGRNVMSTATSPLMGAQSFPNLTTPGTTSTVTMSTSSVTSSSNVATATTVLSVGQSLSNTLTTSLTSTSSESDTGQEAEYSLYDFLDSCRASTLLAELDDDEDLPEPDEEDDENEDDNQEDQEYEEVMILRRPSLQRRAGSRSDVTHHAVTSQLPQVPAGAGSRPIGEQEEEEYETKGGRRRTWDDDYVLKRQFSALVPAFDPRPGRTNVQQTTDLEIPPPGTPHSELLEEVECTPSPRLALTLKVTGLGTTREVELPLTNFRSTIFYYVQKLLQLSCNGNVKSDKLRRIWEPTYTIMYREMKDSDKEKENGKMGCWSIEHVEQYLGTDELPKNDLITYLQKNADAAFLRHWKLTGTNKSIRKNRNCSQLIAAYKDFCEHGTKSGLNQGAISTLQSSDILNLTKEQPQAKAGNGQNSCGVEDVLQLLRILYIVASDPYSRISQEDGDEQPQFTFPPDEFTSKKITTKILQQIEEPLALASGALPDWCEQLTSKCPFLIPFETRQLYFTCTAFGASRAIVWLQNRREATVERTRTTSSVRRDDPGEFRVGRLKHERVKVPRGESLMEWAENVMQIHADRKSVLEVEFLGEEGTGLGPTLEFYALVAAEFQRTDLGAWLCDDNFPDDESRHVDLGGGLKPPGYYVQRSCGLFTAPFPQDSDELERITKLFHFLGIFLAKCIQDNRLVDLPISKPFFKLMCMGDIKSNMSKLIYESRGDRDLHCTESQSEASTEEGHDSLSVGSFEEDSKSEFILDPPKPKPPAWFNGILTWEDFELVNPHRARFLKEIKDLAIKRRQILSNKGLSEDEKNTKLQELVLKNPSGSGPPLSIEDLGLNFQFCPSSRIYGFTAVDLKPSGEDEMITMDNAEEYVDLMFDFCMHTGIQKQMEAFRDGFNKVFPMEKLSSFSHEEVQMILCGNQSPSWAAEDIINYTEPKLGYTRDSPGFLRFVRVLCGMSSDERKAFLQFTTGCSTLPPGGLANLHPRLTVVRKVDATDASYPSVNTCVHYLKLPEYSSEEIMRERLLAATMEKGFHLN
# UniProt Q9NRZ9, 154-175: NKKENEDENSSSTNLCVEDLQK
# UniProt P51610: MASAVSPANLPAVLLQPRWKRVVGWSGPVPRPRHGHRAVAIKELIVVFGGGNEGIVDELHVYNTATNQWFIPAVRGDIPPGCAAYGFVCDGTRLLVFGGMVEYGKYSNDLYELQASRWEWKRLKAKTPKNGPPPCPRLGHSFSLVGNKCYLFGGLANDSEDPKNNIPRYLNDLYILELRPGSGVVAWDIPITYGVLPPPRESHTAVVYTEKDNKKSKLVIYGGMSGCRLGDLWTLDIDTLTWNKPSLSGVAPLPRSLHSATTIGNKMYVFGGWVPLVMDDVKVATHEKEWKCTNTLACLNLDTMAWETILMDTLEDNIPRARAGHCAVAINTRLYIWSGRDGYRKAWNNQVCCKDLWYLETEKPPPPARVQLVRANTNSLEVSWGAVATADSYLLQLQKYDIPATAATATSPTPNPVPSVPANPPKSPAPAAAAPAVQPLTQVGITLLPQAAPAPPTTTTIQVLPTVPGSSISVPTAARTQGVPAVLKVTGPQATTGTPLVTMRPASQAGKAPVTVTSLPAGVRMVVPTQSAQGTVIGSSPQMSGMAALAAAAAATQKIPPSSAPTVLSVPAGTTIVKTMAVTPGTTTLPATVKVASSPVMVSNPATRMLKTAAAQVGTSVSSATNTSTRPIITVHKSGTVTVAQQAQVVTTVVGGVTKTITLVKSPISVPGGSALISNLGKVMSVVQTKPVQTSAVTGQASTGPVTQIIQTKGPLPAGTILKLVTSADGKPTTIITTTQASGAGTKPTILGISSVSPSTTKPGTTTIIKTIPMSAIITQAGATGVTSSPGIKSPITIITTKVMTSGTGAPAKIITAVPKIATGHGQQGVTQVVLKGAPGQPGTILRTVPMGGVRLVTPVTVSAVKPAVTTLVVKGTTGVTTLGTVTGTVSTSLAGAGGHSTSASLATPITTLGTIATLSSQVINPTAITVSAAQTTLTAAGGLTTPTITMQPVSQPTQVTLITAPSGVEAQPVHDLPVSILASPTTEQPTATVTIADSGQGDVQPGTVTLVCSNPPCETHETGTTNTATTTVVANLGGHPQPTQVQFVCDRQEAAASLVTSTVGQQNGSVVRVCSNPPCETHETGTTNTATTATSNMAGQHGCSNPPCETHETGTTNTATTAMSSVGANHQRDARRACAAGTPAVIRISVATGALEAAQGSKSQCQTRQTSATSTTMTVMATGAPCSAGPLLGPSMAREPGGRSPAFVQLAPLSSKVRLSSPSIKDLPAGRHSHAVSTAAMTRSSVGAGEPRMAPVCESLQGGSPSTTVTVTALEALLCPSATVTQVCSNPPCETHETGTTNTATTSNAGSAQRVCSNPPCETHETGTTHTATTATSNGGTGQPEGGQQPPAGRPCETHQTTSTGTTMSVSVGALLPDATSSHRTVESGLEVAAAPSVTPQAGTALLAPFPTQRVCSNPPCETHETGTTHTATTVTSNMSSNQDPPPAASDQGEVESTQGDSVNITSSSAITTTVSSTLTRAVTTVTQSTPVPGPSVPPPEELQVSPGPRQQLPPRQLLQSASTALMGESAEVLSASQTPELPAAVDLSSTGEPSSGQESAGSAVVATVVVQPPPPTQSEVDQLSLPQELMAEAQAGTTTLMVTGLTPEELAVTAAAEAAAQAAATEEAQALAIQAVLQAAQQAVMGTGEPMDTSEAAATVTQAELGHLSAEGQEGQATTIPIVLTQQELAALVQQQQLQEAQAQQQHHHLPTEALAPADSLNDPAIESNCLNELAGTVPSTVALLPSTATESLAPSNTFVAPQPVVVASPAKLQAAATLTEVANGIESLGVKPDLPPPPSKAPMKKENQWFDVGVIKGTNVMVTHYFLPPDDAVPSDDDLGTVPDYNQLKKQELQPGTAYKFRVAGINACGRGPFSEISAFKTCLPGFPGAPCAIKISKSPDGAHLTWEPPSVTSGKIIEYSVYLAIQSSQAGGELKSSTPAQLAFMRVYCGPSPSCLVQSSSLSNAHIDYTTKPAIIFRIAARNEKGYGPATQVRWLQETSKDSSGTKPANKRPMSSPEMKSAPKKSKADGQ
# UniProt Q99871: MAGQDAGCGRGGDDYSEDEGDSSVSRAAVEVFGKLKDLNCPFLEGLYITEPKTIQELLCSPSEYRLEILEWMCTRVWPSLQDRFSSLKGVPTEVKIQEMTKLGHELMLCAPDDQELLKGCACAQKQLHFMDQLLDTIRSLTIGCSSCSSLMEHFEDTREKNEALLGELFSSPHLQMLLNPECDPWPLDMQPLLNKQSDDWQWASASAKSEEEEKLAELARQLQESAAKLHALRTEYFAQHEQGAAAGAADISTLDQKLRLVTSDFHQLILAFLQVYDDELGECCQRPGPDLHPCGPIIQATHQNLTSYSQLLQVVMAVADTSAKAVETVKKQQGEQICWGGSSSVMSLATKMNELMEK
# UniProt Q5GLZ8: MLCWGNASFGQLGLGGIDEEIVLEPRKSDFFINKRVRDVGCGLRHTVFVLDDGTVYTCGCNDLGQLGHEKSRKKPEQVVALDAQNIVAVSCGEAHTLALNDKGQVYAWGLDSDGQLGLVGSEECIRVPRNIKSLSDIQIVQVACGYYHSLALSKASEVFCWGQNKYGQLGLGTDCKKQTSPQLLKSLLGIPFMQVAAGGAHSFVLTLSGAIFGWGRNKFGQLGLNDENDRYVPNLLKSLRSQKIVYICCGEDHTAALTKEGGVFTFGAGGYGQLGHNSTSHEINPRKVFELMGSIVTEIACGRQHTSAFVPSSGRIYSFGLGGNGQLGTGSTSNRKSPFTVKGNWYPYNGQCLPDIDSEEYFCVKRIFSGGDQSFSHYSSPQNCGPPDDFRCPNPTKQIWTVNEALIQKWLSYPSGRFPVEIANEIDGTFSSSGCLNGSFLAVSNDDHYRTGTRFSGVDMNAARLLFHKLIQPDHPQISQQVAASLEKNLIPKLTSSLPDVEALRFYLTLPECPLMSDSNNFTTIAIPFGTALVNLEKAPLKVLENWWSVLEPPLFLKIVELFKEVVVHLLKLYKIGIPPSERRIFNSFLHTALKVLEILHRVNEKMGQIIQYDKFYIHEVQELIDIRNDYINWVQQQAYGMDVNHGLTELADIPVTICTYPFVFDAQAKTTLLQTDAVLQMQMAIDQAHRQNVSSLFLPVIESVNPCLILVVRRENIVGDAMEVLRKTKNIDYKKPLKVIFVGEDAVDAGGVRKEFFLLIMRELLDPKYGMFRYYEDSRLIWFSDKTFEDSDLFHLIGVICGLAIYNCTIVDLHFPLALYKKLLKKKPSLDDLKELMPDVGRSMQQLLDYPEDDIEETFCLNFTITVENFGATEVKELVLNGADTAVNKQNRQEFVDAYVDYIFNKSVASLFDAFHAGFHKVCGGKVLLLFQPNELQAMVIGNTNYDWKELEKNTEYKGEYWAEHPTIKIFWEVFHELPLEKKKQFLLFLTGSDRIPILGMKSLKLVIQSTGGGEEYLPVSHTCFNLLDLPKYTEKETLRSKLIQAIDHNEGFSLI
# The other results are listed elsewhere or left out. The data scatter; read single values as rough.
# Assays:
# [1] = compound: ClCC(=O)N[C@@H]1CCCc2ccccc12; assay: log2 mean competition ratio of IA-DTB cysteine labelling (DMSO/compound) (log2 ratio); higher = stronger cysteine engagement by compound; conditions: treatment time: 4 h, cell line lysate: HEK293T
# Method: (§1)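 IA-DTB competitive cysteine chemoproteomics in HEK293T RIPA lysate. Lysates were treated with compound 29 or 30 at 50 or 200 µM for 4 h, then IA-DTB (500 µM, 1 h), trypsin-digested, NeutrAvidin-enriched and analysed by diaPASEF. Competition ratio = intensity DMSO / intensity compound (n=4 treated, n=64 DMSO); binding: mean log2 CR ≥ 1 and p ≤ 0.05 plus QC filters. Target is the cysteine site.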
# [2] = compound: ClCC(=O)N[C@H]1CCCc2ccccc12; assay: as above; conditions: treatment time: 4 h, cell line lysate: HEK293T
# Method: as §1
target,measurement,setting,value
HDLBP C940,log2 mean competition ratio,[1]; 50 µM,-0.149
same,log2 mean competition ratio,[1]; 200 µM,0.134
HNRNPDL C177 (UniProt O14979),log2 mean competition ratio,[1]; 50 µM,-0.154
same,log2 mean competition ratio,[1]; 200 µM,-0.0552
same,log2 mean competition ratio,[2]; 50 µM,-0.478
same,log2 mean competition ratio,[2]; 200 µM,-0.0695
HNRNPK C145 (UniProt P61978),log2 mean competition ratio,[1]; 50 µM,-0.236
same,log2 mean competition ratio,[1]; 200 µM,-0.0914
same,log2 mean competition ratio,[2]; 50 µM,-0.318
same,log2 mean competition ratio,[2]; 200 µM,0.123
GTPBP2 C36 (UniProt Q9BX10),log2 mean competition ratio,[1]; 50 µM,0.307
same,log2 mean competition ratio,[1]; 200 µM,-0.22
same,log2 mean competition ratio,[2]; 50 µM,0.3
same,log2 mean competition ratio,[2]; 200 µM,-0.134
GTF3C4 C257 (UniProt Q9UKN8),log2 mean competition ratio,[1]; 50 µM,0.116
same,log2 mean competition ratio,[1]; 200 µM,-0.0528
same,log2 mean competition ratio,[2]; 50 µM,0.143
same,log2 mean competition ratio,[2]; 200 µM,-0.0395
HDDC2 C145 (UniProt Q7Z4H3),log2 mean competition ratio,[1]; 50 µM,-0.0321
same,log2 mean competition ratio,[1]; 200 µM,0.162
same,log2 mean competition ratio,[2]; 50 µM,0.273
same,log2 mean competition ratio,[2]; 200 µM,0.0701
HNRNPUL2 C602 (UniProt Q1KMD3),log2 mean competition ratio,[1]; 50 µM,-0.0665
same,log2 mean competition ratio,[1]; 200 µM,-0.103
same,log2 mean competition ratio,[2]; 50 µM,0.604
same,log2 mean competition ratio,[2]; 200 µM,-0.246
HOXB6 C123,log2 mean competition ratio,[1]; 50 µM,0.122
same,log2 mean competition ratio,[1]; 200 µM,0.0857
same,log2 mean competition ratio,[2]; 50 µM,-0.0268
same,log2 mean competition ratio,[2]; 200 µM,0.0177
HELB C379 (UniProt Q8NG08),log2 mean competition ratio,[1]; 50 µM,0.202
same,log2 mean competition ratio,[1]; 200 µM,0.308
same,log2 mean competition ratio,[2]; 50 µM,-0.0754
same,log2 mean competition ratio,[2]; 200 µM,-0.243
HGS C166 (UniProt O14964),log2 mean competition ratio,[1]; 50 µM,-0.178
same,log2 mean competition ratio,[1]; 200 µM,0.166
same,log2 mean competition ratio,[2]; 50 µM,-0.604
same,log2 mean competition ratio,[2]; 200 µM,0.144
HLA-B C349,log2 mean competition ratio,[1]; 50 µM,-0.176
same,log2 mean competition ratio,[1]; 200 µM,-0.388
same,log2 mean competition ratio,[2]; 50 µM,0.539
same,log2 mean competition ratio,[2]; 200 µM,-0.223
HMCES C131 (UniProt Q96FZ2),log2 mean competition ratio,[1]; 50 µM,0.032
same,log2 mean competition ratio,[1]; 200 µM,0.0387
same,log2 mean competition ratio,[2]; 50 µM,-0.0483
same,log2 mean competition ratio,[2]; 200 µM,0.112
HLCS C289 (UniProt P50747),log2 mean competition ratio,[1]; 50 µM,0.262
same,log2 mean competition ratio,[1]; 200 µM,-0.0244
same,log2 mean competition ratio,[2]; 50 µM,0.648
same,log2 mean competition ratio,[2]; 200 µM,-0.103
HNRNPH2 C22 (UniProt P55795),log2 mean competition ratio,[1]; 50 µM,0.369
same,log2 mean competition ratio,[1]; 200 µM,-0.179
same,log2 mean competition ratio,[2]; 50 µM,0.601
same,log2 mean competition ratio,[2]; 200 µM,-0.00735
HIP1 C613 (UniProt O00291),log2 mean competition ratio,[1]; 50 µM,-0.113
same,log2 mean competition ratio,[1]; 200 µM,-0.145
same,log2 mean competition ratio,[2]; 50 µM,-0.214
same,log2 mean competition ratio,[2]; 200 µM,-0.135
HERC2 C349 (UniProt O95714),log2 mean competition ratio,[1]; 50 µM,-0.0102
same,log2 mean competition ratio,[1]; 200 µM,0.0914
same,log2 mean competition ratio,[2]; 50 µM,0.188
same,log2 mean competition ratio,[2]; 200 µM,0.0111
HOOK2 C423 (UniProt Q96ED9),log2 mean competition ratio,[1]; 50 µM,-0.242
same,log2 mean competition ratio,[1]; 200 µM,-0.339
same,log2 mean competition ratio,[2]; 50 µM,0.252
same,log2 mean competition ratio,[2]; 200 µM,-0.352
HNRNPLL C505 (UniProt Q8WVV9),log2 mean competition ratio,[1]; 50 µM,0.0638
same,log2 mean competition ratio,[1]; 200 µM,0.00426
same,log2 mean competition ratio,[2]; 50 µM,-0.175
same,log2 mean competition ratio,[2]; 200 µM,-0.041
HECTD4 C1636,log2 mean competition ratio,[1]; 50 µM,-0.0451
same,log2 mean competition ratio,[1]; 200 µM,0.133
same,log2 mean competition ratio,[2]; 50 µM,0.0723
same,log2 mean competition ratio,[2]; 200 µM,0.232
HECTD3 C112 (UniProt Q5T447),log2 mean competition ratio,[1]; 50 µM,0.0778
same,log2 mean competition ratio,[1]; 200 µM,0.229
same,log2 mean competition ratio,[2]; 50 µM,-0.474
same,log2 mean competition ratio,[2]; 200 µM,0.0447
HAUS8 C182 (UniProt Q9BT25),log2 mean competition ratio,[1]; 50 µM,0.0629
same,log2 mean competition ratio,[1]; 200 µM,0.0802
same,log2 mean competition ratio,[2]; 50 µM,0.252
same,log2 mean competition ratio,[2]; 200 µM,0.113
HECTD1 C58 (UniProt Q9ULT8),log2 mean competition ratio,[1]; 50 µM,-0.221
same,log2 mean competition ratio,[1]; 200 µM,-0.0987
same,log2 mean competition ratio,[2]; 50 µM,0.147
same,log2 mean competition ratio,[2]; 200 µM,-0.0702
HNRNPLL C474 (UniProt Q8WVV9),log2 mean competition ratio,[1]; 50 µM,0.0474
same,log2 mean competition ratio,[1]; 200 µM,-0.0635
same,log2 mean competition ratio,[2]; 50 µM,-0.664
same,log2 mean competition ratio,[2]; 200 µM,-0.354
GSTO1 C192,log2 mean competition ratio,[1]; 50 µM,-0.337
same,log2 mean competition ratio,[1]; 200 µM,-0.882
same,log2 mean competition ratio,[2]; 50 µM,-0.442
same,log2 mean competition ratio,[2]; 200 µM,-0.807
HEATR5A C614 (UniProt Q86XA9),log2 mean competition ratio,[1]; 50 µM,-0.0493
same,log2 mean competition ratio,[1]; 200 µM,0.0291
same,log2 mean competition ratio,[2]; 50 µM,0.31
same,log2 mean competition ratio,[2]; 200 µM,0.0689
HERC2 C1037 (UniProt O95714),log2 mean competition ratio,[1]; 50 µM,0.304
same,log2 mean competition ratio,[1]; 200 µM,0.363
same,log2 mean competition ratio,[2]; 50 µM,-0.125
same,log2 mean competition ratio,[2]; 200 µM,0.197
GZF1 C282 (UniProt Q9H116),log2 mean competition ratio,[1]; 50 µM,-0.192
same,log2 mean competition ratio,[1]; 200 µM,0.194
same,log2 mean competition ratio,[2]; 50 µM,-0.242
same,log2 mean competition ratio,[2]; 200 µM,-0.0322
HEATR5B C810 (UniProt Q9P2D3),log2 mean competition ratio,[1]; 50 µM,-0.121
same,log2 mean competition ratio,[1]; 200 µM,-0.174
same,log2 mean competition ratio,[2]; 50 µM,-0.0743
same,log2 mean competition ratio,[2]; 200 µM,0.068
HELLS C169 (UniProt Q9NRZ9),log2 mean competition ratio,[1]; 50 µM,-0.36
same,log2 mean competition ratio,[1]; 200 µM,-0.0674
same,log2 mean competition ratio,[2]; 50 µM,-0.108
same,log2 mean competition ratio,[2]; 200 µM,-0.148
GTF2I C745 (UniProt P78347),log2 mean competition ratio,[1]; 50 µM,0.0767
same,log2 mean competition ratio,[1]; 200 µM,0.0119
same,log2 mean competition ratio,[2]; 50 µM,0.0677
same,log2 mean competition ratio,[2]; 200 µM,0.0134
GUF1 C492 (UniProt Q8N442),log2 mean competition ratio,[1]; 50 µM,0.442
same,log2 mean competition ratio,[1]; 200 µM,0.259
same,log2 mean competition ratio,[2]; 50 µM,0.187
same,log2 mean competition ratio,[2]; 200 µM,0.308
GTF3C1 C1008 (UniProt Q12789),log2 mean competition ratio,[1]; 50 µM,0.316
same,log2 mean competition ratio,[1]; 200 µM,0.147
same,log2 mean competition ratio,[2]; 50 µM,0.325
same,log2 mean competition ratio,[2]; 200 µM,-0.11
HMGXB3 C434 (UniProt Q12766),log2 mean competition ratio,[1]; 50 µM,-0.0767
same,log2 mean competition ratio,[1]; 200 µM,-0.0156
same,log2 mean competition ratio,[2]; 50 µM,-0.223
same,log2 mean competition ratio,[2]; 200 µM,0.0811
GTSE1 C198 (UniProt Q9NYZ3),log2 mean competition ratio,[1]; 50 µM,0.308
same,log2 mean competition ratio,[1]; 200 µM,0.106
same,log2 mean competition ratio,[2]; 50 µM,0.183
same,log2 mean competition ratio,[2]; 200 µM,-0.0257
HCFC1 C135 (UniProt P51610),log2 mean competition ratio,[1]; 50 µM,-0.322
same,log2 mean competition ratio,[1]; 200 µM,-0.626
same,log2 mean competition ratio,[2]; 50 µM,0.022
same,log2 mean competition ratio,[2]; 200 µM,-0.13
HK2 C886 (UniProt P52789),log2 mean competition ratio,[1]; 50 µM,-0.0165
same,log2 mean competition ratio,[1]; 200 µM,0.0498
same,log2 mean competition ratio,[2]; 50 µM,0.107
same,log2 mean competition ratio,[2]; 200 µM,0.109
HECTD1 C507 (UniProt Q9ULT8),log2 mean competition ratio,[1]; 50 µM,-0.302
same,log2 mean competition ratio,[1]; 200 µM,0.11
same,log2 mean competition ratio,[2]; 50 µM,-0.395
same,log2 mean competition ratio,[2]; 200 µM,0.171
HECTD4 C1299,log2 mean competition ratio,[1]; 50 µM,-0.0888
same,log2 mean competition ratio,[1]; 200 µM,0.0627
same,log2 mean competition ratio,[2]; 50 µM,-0.238
same,log2 mean competition ratio,[2]; 200 µM,-0.0535
HAUS7 C8 (UniProt Q99871),log2 mean competition ratio,[1]; 50 µM,0.2
same,log2 mean competition ratio,[1]; 200 µM,-0.0176
same,log2 mean competition ratio,[2]; 50 µM,-0.207
same,log2 mean competition ratio,[2]; 200 µM,0.304
HID1 C85,log2 mean competition ratio,[1]; 50 µM,0.0331
same,log2 mean competition ratio,[1]; 200 µM,0.353
same,log2 mean competition ratio,[2]; 50 µM,0.0159
same,log2 mean competition ratio,[2]; 200 µM,0.0632
HELZ C256 (UniProt P42694),log2 mean competition ratio,[1]; 50 µM,-0.0367
same,log2 mean competition ratio,[1]; 200 µM,-0.222
same,log2 mean competition ratio,[2]; 50 µM,-0.102
same,log2 mean competition ratio,[2]; 200 µM,-0.227
HERC4 C175 (UniProt Q5GLZ8),log2 mean competition ratio,[1]; 50 µM,0.161
same,log2 mean competition ratio,[1]; 200 µM,-0.0924
same,log2 mean competition ratio,[2]; 50 µM,-0.032
same,log2 mean competition ratio,[2]; 200 µM,-0.0709
HELB C646 (UniProt Q8NG08),log2 mean competition ratio,[1]; 50 µM,-0.0492
same,log2 mean competition ratio,[1]; 200 µM,-0.0406
same,log2 mean competition ratio,[2]; 50 µM,0.0643
same,log2 mean competition ratio,[2]; 200 µM,-0.0369

# For reference, some entries already given:
target,measurement,setting,value
HCFC1 C135 (UniProt P51610),log2 mean competition ratio,[2]; 200 µM,-0.13
HK2 C886 (UniProt P52789),log2 mean competition ratio,[1]; 50 µM,-0.0165
same,log2 mean competition ratio,[1]; 200 µM,0.0498
same,log2 mean competition ratio,[2]; 50 µM,0.107
same,log2 mean competition ratio,[2]; 200 µM,0.109
HECTD1 C507 (UniProt Q9ULT8),log2 mean competition ratio,[1]; 50 µM,-0.302

# Quoted at random: two records from the list, in no set order.
target,measurement,setting,value
HNRNPDL C177 (UniProt O14979),log2 mean competition ratio,[1]; 200 µM,-0.0552
HCFC1 C135 (UniProt P51610),log2 mean competition ratio,[2]; 200 µM,-0.13

# Rewritten as tab-separated lines: entries from further up
target	measurement	setting	value
HOXB6 C123	log2 mean competition ratio	[2]; 200 µM	0.0177
HIP1 C613 (UniProt O00291)	log2 mean competition ratio	[1]; 50 µM	-0.113
